# Library screening results

Sequences of proteins named here, by UniProt entry; tags and fusion partners are left off.
UniProt E9BF75, entry or part of it: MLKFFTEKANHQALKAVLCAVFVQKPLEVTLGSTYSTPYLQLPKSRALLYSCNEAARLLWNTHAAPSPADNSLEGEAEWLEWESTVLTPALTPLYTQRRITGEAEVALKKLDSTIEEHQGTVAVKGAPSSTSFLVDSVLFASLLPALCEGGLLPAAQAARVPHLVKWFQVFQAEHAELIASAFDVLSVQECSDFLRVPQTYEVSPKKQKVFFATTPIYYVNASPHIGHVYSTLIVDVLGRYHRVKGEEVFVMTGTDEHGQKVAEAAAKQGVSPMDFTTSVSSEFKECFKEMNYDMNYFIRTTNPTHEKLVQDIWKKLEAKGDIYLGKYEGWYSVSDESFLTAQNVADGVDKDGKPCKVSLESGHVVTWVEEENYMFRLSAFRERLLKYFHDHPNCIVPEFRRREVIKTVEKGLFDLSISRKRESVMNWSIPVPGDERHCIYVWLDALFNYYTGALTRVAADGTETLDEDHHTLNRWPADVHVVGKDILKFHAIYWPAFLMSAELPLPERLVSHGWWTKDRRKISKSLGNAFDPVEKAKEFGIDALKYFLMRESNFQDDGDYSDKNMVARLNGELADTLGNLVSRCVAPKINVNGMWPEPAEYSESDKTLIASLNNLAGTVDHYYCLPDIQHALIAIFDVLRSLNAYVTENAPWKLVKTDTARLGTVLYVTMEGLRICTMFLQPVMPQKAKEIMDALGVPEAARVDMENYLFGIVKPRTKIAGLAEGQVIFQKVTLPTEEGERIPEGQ

Data taken from ChEMBL document CHEMBL3988442, “University of Dundee, Small-Polar-MMV Screening Library” (2021).

LdMetRS: 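Primary screen of methionyl-tRNA synthetase; the read-out is not stated. Target: Methionyl-tRNA synthetase (putative), Leishmania donovani (UniProt E9BF75). The test concentration is not given. The values are filed as inhibition. Of about 68,000 compounds tested this way, about 24 (0.035%) reached 50% or more in at least one test.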
Mtb heat-shock: 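Assay on Mycobacterium tuberculosis, filed only as a heat shock assay from Cornell; the read-out is not stated. The concentration is filed as 10 mM, unlikely as a test dose, so the dose is not known. Higher reads as stronger inhibition (inferred: compounds with an IC50 in retests scored well above the rest). Size under these conditions: about 69,000 compounds, about 930 of them at 50% or above in at least one test.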

Results are percentages, as filed. How 0% and 100% were set is not recorded. Most values in the screen are low, and negative values occur. The compounds are a random part of those screened. A dash means the value is not listed here; it may have been measured.

SMILES	LdMetRS	Mtb heat-shock
Cc1ccccc1NC(=O)NCC(C)(O)c1cccs1 (centres unmarked)	10.57%	14.75%
O=C(c1cccnc1SC/C=C/c1ccccc1)N1CC[C@H](O)C1	11.02%	-10.53%
OCC1CCCN1c1cc(NCc2ccccn2)ncn1 (centres unmarked)	11.54%	17.1%
Cc1cc(C(=O)N2CCC3(CCN3Cc3ccc(F)cc3)C2)no1.O=C(O)C(F)(F)F (centres unmarked)	-	6.2%
CCN(CC(=O)NC)S(=O)(=O)N1CCCCC1	14.61%	2.125%
O=C(NCCCC(=O)N1Cc2ccccc2C1)NCc1cccnc1	8.967%	-8.145%
Cc1cnn(C2CCCN(C(=O)c3ccnc(N(C)C)c3)C2)c1 (centres unmarked)	3.472%	-23.46%
COCCN1CCc2ncnc(OC(C)C)c2CC1.O=C(O)C(F)(F)F	-	25.27%
O=C(NCCc1nccs1)N1CCC(n2cccc2)CC1	4.19%	26.52%
O=C(O)C(F)(F)F.O=C(O)C(F)(F)F.O=C1CCC2(CCCN(Cc3nccs3)C2)N1CC1CC1 (centres unmarked)	-	-3.688%
COc1ccc(Cl)cc1C(=O)NCc1cnn(C)c1C	10.36%	-2.837%
CN(C)CCO[C@H]1CN(CC2CC2)[C@@H]2CCCO[C@H]12	-9.384%	-
O=C(C1CC1)N1CCC2(CC1)COCCN2Cc1ccc(F)cc1.O=C(O)C(F)(F)F	-	9.082%
COc1cccc(CN(C)C(=O)Nc2ccc3c(c2)OCCO3)c1	7.746%	13.15%
c1ccc(CN2CCc3ncnc(-c4ccsc4)c3CC2)nc1	12.46%	-
COCC(O)CN(C)c1ccnc2ccc(Cl)cc12 (centres unmarked)	9.309%	9.459%
CC(C)c1noc(-c2ccc(NC(=O)NCC(O)C(C)C)cc2)n1 (centres unmarked)	5.602%	-6.429%
O=C(CSc1nc2c(cnn2CCO)c(=O)[nH]1)N1CCCCCC1	7.389%	-10.82%
[H][C@@]12CN(C3CCOCC3)C[C@]1([H])N(CCc1ccc(OC)cc1)C(=O)O2	-	-30.95%
CCc1nc(CN(C)C2CCN(CCc3ccccn3)C2)no1 (centres unmarked)	6.294%	-3.057%
Cc1nc(CN(Cc2cccnc2)Cc2ccsc2)c[nH]1	11.73%	-2.148%
CC(C)N1CCC2(CC1)CC(NS(C)(=O)=O)c1ccccc1O2 (centres unmarked)	8.629%	-
O=C(O)CCN(Cc1ccc(F)c(F)c1)C(=O)C1CC1	13.28%	-3.195%
CN(C)c1ccc(NC(=O)NCc2ccccn2)cn1	5.923%	10.58%
Cn1ccnc1C(=O)NCc1cnc2n1CCN(CC1CC1)CC2.O=C(O)C(F)(F)F.O=C(O)C(F)(F)F	-	-31.5%
CS(=O)(=O)NCCc1cccc2cccnc12	6.516%	-43.5%
COC(=O)c1ccc(NC(=O)CN2CCCCC2C2OCCO2)cc1 (centres unmarked)	8.242%	-22.15%
Cn1c(-c2ccccc2)nn(CCNS(=O)(=O)c2ccccc2Cl)c1=O	9.353%	4.389%
Cc1nc(-c2ccccc2)sc1CNC1CCc2ncnn2C1 (centres unmarked)	19.09%	-14.7%
c1ccc(CCCN2CC[C@H](c3nnc(-c4ccccc4)o3)C2)cc1	5.495%	25.24%
COC(=O)c1oc(CNC(C)(C)c2ccc3c(c2)OCO3)cc1C	12.4%	-19.7%
CCCN1CCN(C(=O)Cc2cccnc2)[C@H]2CS(=O)(=O)C[C@H]21	6.044%	-
CCc1cnc(CNc2cccc3c2CCN(S(=O)(=O)CC)C3)o1	11.87%	-2.683%
[H][C@@]12CS(=O)(=O)C[C@]1([H])N(Cc1ccc(F)c(C)c1)CCN2CC1CC1	-	-13.3%
CO[C@H]1CCN(Cc2c(C)noc2C)[C@@H]2CN(Cc3cccnc3)C[C@H]12	12.02%	-
COCC1CC2(CCN(Cc3nccs3)CC2)CN1Cc1ccccn1 (centres unmarked)	6.753%	-
COc1ccc(C2CCCCCN2Cc2cn(C)nc2C)cc1 (centres unmarked)	15.21%	-19.87%
O=C(O)C(F)(F)F.O=C(O)C(F)(F)F.[H][C@@]12CCN(CC3CC3)[C@@]1([H])CCN2Cc1ccc2c(c1)OCO2	-	-11.46%
CC(C)[C@H](NC(=O)c1cccc(CCC(C)(C)O)c1)C(N)=O	14.07%	-9.258%
CC(=O)c1sc2nc3c(c(C(F)(F)F)c2c1N)CN(C(C)=O)CC3	14.29%	-6.992%
OC1(CNCCSc2ccccn2)CCCNC1 (centres unmarked)	14.66%	-17.77%
Cn1nc2c(cc1=O)CN(Cc1nc(N)c3ccccc3n1)CC2	6.267%	-24.08%
COc1ccc(C(=O)N2C[C@@H](c3ccccc3)[C@@H]3NCCCC[C@@H]32)cc1	17.42%	-
CCc1ccc2nc(C)cc(C(=O)N3C[C@H]4CCC[C@@]4(CO)C3)c2c1	18.73%	-
COCc1cn(C[C@H]2C[C@@H]3CCN2C[C@@H]3C(=O)N2CCOCC2)nn1	10.51%	-
O=C(C1CCCCC1)N1CCC(n2nc(-c3ccco3)ccc2=O)CC1	4.167%	21.4%
CCn1cc(NC(=O)NCC(c2cccc(OC)c2)N(C)C)cn1 (centres unmarked)	18.58%	0.498%
COc1ccc(NC2CCc3c2[nH]c(=O)n(C2CCCCC2)c3=O)cc1 (centres unmarked)	8.788%	10.43%
CC(=O)N1CCC(Nc2ccc(Br)cc2C#N)C1 (centres unmarked)	4.53%	3.848%
Cn1c2ncccc2c(=O)n1CC(=O)NCCC1=CCCCC1	12.77%	-2.25%
O=C(Nc1ccc(Cn2cccn2)cc1)N1CCC2(CC1)OCCO2	5.498%	-22.12%
CN(Cc1nnc(C2CC2)n1C)C1CCN(Cc2ccc(F)cc2)C1 (centres unmarked)	13.07%	7.484%
O=C(CC1CC1)N1CCO[C@H]2[C@H](OCCCn3cccn3)CC[C@@H]21	10.14%	-
Cn1cnc(S(=O)(=O)NCCCN2CCOCC2)c1Cl	9.15%	20.01%
C/C=C(\C)CN1CCCn2nc(CNC(=O)C3CCC3)cc2C1	12.04%	-25.91%
O=C(c1cnc2n1CCCC2)N1CCCC1	11.45%	3.568%
COc1c(CNCCNC(=O)c2cccs2)c(C)nn1C	13.97%	2.84%
O=C(O)C(F)(F)F.O=C(O)C(F)(F)F.O=C1CC2(CCN(Cc3cccnc3)C2)CN1c1cccc(F)c1 (centres unmarked)	-	6.608%
CC(C)N1CC2(CCC1=O)CCN(C(=O)c1cc(F)ccc1Cl)CC2	13.04%	22.47%
CCc1nc(CN(C(C)=O)C2CCN(CCc3ccccc3)C2)no1 (centres unmarked)	14.93%	-8.396%
Cc1cnc(N2CCC3(C2)C(=O)N(C)CCN3Cc2cccnc2)nc1 (centres unmarked)	9.14%	-
O=C(c1cnc(C2CC2)s1)N1CCCC1Cn1cccn1 (centres unmarked)	23.36%	-3.195%
Cn1cc(C(=O)NC2CCN(Cc3ccn(C)c(=O)c3)CC2)cn1	7.975%	4.368%
COCCN(C)C(=O)c1ccc2onc(-c3coc(C)n3)c2c1	15.73%	-13.51%
COC(=O)C(CNC(=O)Nc1nncs1)Cc1cccc(C)c1 (centres unmarked)	15.32%	-4.809%
CC(Cn1cccn1)NS(=O)(=O)Cc1ccc(F)cc1 (centres unmarked)	8.493%	18.93%
CCc1cnc(CNC(=O)NC2CC(C)(C)OC2(C)C)s1 (centres unmarked)	4.83%	-8.555%
Cc1nn(C)c(C)c1CNC(=O)c1cc(NC(=O)C2CC2)n(C)n1	29.9%	1.891%
Cc1nc(C)c(C(=O)N2CCCc3c(F)cccc32)o1	16.72%	-19.48%
CC(C)CC(=O)NC[C@H]1CC[C@H](C(c2ccccn2)N(C)C)CC1 (some centres unmarked)	14.36%	5.538%
CNc1nccnc1C1CN(C(=O)c2cc[nH]n2)CCO1 (centres unmarked)	18.62%	12.59%
CC(=O)N1CCC2(CCN(Cc3ccccn3)C2=O)C1 (centres unmarked)	10%	-
Cc1ccc(OCC(=O)NS(=O)(=O)Cc2ccccc2)cc1	6.443%	-30.56%
O=C1COC2(CCN(C(=O)c3ccoc3)CC2)CN1Cc1cccnc1	5.449%	-8.794%
O=C(O)C(F)(F)F.[H][C@@]12C[C@H](C(=O)NCc3ccccc3)[C@@]([H])(CN(CCC(C)C)C1)O2	-	-7.685%
[H][C@@]12CNC[C@]1([H])CN(c1nc(C)nc3ccsc13)C2	-	-16.86%
CCc1noc(CN2CCN(C(=O)c3ccccn3)CC2)n1	12.03%	7.072%

Repeated from the top, 7 entries:

{"smiles": "Cc1ccccc1NC(=O)NCC(C)(O)c1cccs1", "stereo": "centres unmarked", "LdMetRS": 10.57, "Mtb heat-shock": 14.75}
{"smiles": "O=C(c1cccnc1SC/C=C/c1ccccc1)N1CC[C@H](O)C1", "LdMetRS": 11.02, "Mtb heat-shock": -10.53}
{"smiles": "OCC1CCCN1c1cc(NCc2ccccn2)ncn1", "stereo": "centres unmarked", "LdMetRS": 11.54, "Mtb heat-shock": 17.1}
{"smiles": "Cc1cc(C(=O)N2CCC3(CCN3Cc3ccc(F)cc3)C2)no1.O=C(O)C(F)(F)F", "stereo": "centres unmarked", "Mtb heat-shock": 6.2}
{"smiles": "CCN(CC(=O)NC)S(=O)(=O)N1CCCCC1", "LdMetRS": 14.61, "Mtb heat-shock": 2.125}
{"smiles": "O=C(NCCCC(=O)N1Cc2ccccc2C1)NCc1cccnc1", "LdMetRS": 8.967, "Mtb heat-shock": -8.145}
{"smiles": "Cc1cnn(C2CCCN(C(=O)c3ccnc(N(C)C)c3)C2)c1", "stereo": "centres unmarked", "LdMetRS": 3.472, "Mtb heat-shock": -23.46}